Data reported in publication PMC5148605, “Prefabrication of a ribosomal protein subcomplex essential for eukaryotic ribosome formation” (eLife, 2016).
Results are given in words; binding and its absence hold for the method and conditions named. Some entries that bind do so weakly or less than the wild type. For some of these results: Sequences can lack the tags named with a protein.

Chains of the proteins cited; added tags and fusions are not shown.
UniProt P53067: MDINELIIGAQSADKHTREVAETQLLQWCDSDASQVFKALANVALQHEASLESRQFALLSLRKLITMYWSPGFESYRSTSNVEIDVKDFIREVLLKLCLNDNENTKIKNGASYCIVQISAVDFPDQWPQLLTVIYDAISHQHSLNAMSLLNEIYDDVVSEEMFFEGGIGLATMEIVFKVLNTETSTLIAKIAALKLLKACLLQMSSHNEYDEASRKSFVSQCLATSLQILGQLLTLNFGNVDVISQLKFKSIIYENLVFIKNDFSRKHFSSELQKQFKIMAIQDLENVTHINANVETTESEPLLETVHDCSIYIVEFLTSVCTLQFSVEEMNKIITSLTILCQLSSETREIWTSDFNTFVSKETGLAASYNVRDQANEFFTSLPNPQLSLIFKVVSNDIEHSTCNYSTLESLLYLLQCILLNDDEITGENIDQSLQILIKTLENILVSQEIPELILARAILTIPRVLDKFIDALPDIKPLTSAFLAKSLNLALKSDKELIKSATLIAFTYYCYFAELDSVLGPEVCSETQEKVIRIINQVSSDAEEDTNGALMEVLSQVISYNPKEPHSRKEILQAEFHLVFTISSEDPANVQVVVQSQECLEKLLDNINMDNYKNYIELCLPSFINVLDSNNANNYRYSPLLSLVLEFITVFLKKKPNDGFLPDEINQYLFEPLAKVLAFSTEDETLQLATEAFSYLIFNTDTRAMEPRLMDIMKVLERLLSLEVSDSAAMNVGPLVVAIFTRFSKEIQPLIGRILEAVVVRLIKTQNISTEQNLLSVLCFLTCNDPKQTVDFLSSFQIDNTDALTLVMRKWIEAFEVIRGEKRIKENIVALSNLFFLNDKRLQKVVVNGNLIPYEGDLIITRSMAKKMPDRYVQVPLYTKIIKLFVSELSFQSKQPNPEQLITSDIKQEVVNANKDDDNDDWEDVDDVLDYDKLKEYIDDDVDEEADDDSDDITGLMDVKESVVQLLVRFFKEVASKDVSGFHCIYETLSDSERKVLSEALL
UniProt Q06142: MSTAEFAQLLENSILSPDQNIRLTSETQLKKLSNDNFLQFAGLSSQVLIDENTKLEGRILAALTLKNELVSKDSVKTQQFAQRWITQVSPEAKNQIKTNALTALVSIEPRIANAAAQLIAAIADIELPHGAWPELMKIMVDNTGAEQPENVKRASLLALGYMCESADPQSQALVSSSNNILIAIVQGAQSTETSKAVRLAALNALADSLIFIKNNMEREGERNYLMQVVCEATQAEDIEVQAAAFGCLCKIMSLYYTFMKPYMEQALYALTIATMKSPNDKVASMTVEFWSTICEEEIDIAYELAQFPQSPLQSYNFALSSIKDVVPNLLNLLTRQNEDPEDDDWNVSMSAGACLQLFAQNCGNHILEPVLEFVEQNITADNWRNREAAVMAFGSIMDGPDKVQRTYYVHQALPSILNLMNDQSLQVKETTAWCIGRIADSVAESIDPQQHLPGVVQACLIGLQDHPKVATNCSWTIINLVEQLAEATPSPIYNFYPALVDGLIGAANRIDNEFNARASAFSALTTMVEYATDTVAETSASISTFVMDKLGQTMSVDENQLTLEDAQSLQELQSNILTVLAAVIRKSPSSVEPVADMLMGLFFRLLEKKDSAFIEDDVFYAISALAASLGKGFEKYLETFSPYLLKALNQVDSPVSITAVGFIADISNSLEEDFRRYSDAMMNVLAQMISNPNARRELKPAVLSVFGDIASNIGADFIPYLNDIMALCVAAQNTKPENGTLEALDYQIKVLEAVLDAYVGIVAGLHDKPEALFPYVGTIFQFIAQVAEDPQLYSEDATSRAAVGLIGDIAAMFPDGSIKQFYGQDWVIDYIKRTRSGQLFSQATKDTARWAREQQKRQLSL

Legend:
[1] = target: T1, Enp1-TAP (S. cerevisiae), P38333; assay: tandem affinity purification (TAP) with Western analysis; TAP-tagged baits isolated from yeast cells (wild type; also Fap7- or Tsr2-depleted cells and Tsr2-depleted cells co-overexpressing FAP7 and uS11); calmodulin eluates; pre-ribosomal particles; conditions: remark: other sources report otherwise
T1 chain: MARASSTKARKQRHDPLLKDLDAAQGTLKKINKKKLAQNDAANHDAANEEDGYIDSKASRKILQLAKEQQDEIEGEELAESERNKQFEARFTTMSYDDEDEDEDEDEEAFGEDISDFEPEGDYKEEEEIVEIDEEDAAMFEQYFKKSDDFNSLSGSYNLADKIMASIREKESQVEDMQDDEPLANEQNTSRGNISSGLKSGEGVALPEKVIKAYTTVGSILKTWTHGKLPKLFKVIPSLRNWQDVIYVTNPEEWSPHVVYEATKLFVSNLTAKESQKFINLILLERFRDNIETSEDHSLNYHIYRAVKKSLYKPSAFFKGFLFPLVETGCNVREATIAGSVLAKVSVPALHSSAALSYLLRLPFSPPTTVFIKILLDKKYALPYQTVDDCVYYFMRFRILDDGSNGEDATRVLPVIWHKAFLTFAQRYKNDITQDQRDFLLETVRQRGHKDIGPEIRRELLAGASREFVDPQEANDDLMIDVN

Enp1-TAP (S. cerevisiae) = target: T2, Enp1-TAP (S. cerevisiae) (UniProt P38333); assay: as above
T2 sequence: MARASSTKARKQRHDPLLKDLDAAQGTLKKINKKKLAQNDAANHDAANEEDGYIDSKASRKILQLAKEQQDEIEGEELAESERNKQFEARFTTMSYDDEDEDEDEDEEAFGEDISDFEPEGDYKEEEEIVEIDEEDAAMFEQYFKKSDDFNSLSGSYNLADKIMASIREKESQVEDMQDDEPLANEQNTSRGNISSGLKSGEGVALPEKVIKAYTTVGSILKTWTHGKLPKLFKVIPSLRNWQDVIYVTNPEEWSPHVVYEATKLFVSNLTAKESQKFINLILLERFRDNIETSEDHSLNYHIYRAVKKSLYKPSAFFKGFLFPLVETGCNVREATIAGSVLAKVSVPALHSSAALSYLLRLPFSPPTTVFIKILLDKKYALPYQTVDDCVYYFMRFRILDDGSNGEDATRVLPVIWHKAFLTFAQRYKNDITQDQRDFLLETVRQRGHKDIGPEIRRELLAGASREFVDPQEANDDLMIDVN

[2] = target: T3, GST-Kap104 (S. cerevisiae) (UniProt P38217); assay: pull-down; GST-tagged importins immobilised on Glutathione Sepharose, incubated with buffer, purified Fap7 or Fap7:uS11 for 1 hr, in presence of 100 µl competing E. coli lysate; Coomassie and Western; both purified
T3 sequence: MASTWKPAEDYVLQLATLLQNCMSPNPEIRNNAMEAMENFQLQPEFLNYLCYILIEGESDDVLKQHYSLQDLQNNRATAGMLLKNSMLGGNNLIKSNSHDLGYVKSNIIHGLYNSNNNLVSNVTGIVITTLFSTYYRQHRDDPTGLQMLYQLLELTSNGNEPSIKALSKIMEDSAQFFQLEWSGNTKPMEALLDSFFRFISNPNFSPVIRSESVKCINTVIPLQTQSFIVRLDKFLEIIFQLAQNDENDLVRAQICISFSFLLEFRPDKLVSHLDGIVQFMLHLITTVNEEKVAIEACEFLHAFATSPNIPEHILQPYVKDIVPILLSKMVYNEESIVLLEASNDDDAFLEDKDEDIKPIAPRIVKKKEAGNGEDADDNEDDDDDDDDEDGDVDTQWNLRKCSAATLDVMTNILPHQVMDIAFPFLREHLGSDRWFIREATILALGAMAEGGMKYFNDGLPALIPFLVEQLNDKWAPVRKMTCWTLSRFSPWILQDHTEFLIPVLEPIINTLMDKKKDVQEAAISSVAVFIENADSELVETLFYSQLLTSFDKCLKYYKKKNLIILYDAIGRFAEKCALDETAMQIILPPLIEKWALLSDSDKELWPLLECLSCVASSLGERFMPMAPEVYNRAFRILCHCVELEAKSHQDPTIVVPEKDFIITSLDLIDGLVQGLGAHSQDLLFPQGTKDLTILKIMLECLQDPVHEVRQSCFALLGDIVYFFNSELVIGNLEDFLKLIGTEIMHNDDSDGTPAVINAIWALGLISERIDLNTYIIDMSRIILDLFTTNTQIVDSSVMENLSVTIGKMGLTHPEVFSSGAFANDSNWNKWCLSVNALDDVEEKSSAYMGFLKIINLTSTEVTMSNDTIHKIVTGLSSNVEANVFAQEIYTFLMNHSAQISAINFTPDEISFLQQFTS

[3] = target: GST-Kap114 (S. cerevisiae) (UniProt P53067); assay: as above
GST-Pse1 (S. cerevisiae) = target: T4, GST-Pse1 (S. cerevisiae) (UniProt P32337); assay: as above
T4 sequence: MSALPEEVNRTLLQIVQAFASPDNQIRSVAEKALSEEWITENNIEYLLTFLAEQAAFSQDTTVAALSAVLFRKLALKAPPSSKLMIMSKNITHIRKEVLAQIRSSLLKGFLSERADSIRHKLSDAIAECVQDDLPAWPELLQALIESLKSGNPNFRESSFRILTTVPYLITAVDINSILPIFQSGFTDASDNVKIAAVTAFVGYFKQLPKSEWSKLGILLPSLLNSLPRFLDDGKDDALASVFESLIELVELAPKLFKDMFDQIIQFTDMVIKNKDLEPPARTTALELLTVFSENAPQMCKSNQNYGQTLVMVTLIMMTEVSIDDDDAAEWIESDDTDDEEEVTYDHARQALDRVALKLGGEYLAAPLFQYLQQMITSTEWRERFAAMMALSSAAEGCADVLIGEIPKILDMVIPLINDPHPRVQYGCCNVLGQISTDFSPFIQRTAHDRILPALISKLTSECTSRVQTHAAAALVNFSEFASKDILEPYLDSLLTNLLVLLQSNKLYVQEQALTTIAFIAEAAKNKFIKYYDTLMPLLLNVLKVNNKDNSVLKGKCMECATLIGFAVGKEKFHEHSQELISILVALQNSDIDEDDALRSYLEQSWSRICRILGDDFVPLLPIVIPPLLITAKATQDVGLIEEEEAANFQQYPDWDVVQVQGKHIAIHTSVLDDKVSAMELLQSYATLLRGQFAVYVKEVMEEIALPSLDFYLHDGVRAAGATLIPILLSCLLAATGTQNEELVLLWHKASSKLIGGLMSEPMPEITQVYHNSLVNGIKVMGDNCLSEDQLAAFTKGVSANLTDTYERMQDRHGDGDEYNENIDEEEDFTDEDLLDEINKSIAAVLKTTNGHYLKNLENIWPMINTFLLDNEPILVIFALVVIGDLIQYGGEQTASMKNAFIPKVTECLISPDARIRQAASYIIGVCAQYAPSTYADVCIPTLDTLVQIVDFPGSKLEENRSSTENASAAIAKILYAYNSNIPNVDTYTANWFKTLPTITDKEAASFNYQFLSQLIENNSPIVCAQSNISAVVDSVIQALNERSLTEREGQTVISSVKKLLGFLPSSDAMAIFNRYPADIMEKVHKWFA

GST-Pdr6 (S. cerevisiae) = target: T5, GST-Pdr6 (S. cerevisiae) (UniProt P32767); assay: as above
T5 sequence: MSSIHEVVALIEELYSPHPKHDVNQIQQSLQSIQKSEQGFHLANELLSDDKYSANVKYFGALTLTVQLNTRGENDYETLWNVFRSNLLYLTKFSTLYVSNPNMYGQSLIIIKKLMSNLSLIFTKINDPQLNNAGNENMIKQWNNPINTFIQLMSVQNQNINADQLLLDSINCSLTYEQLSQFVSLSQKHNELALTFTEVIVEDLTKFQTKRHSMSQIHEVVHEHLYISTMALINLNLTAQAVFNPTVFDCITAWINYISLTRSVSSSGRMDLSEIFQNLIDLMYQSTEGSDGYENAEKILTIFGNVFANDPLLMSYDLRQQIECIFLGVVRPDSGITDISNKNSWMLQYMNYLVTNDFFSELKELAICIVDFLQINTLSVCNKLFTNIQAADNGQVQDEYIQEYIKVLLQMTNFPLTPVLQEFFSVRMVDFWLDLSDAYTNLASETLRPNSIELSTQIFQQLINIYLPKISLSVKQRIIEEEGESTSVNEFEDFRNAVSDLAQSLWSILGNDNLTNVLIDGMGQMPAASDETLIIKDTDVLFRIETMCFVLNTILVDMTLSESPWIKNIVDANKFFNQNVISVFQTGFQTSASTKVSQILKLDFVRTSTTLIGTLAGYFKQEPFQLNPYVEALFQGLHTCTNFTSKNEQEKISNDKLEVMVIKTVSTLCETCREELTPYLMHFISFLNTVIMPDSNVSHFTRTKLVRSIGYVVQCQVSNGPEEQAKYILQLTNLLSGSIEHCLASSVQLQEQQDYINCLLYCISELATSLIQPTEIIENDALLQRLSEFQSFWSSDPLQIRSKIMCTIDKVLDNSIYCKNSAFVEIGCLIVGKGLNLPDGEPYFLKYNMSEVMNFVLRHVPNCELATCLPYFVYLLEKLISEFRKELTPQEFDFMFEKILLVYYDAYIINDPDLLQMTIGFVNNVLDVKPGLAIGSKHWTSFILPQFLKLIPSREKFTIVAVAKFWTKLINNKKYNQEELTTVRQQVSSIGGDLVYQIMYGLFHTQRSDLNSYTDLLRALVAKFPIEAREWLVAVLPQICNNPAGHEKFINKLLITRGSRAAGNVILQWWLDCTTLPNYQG

[4] = target: GST-Kap95 (S. cerevisiae) (UniProt Q06142); assay: as above

B1: uS3 (endogenous), P05750 1-240 (protein)
chain: MVALISKKRKLVADGVFYAELNEFFTRELAEEGYSGVEVRVTPTKTEVIIRATRTQDVLGENGRRINELTLLVQKRFKYAPGTIVLYAERVQDRGLSAVAQAESMKFKLLNGLAIRRAAYGVVRYVMESGAKGCEVVVSGKLRAARAKAMKFADGFLIHSGQPVNDFIDTATRHVLMRQGVLGIKVKIMRDPAKSRTGPKALPDAVTIIEPKEEEPILAPSVKDYRPAEETEAQAEPVEA
- binding [1]: binds

B2: uS7 (endogenous) (protein, UniProt P26783 1-225)
chain: MSDTEAPVEVQEDFEVVEEFTPVVLATPIPEEVQQAQTEIKLFNKWSFEEVEVKDASLVDYVQVRQPIFVAHTAGRYANKRFRKAQCPIIERLTNSLMMNGRNNGKKLKAVRIIKHTLDIINVLTDQNPIQVVVDAITNTGPREDTTRVGGGGAARRQAVDVSPLRRVNQAIALLTIGAREAAFRNIKTIAETLAEELINAAKGSSTSYAIKKKDELERVAKSNR
- binding (Enp1-TAP (S. cerevisiae)): binds

B3: Fap7 (enzyme, S. cerevisiae, UniProt Q12055 1-197, looked up)
chain: MEARRYGPNIIVTGTPGCGKSSTCEFLKNKLKDYKYYNISDFAKDNDCFEGYDEGRKSHIVDEDKLLDMLEPLLRQGNSIVDWHVNDVFPERLIDLVVVLRCDNSNLYSRLHARGYHDSKIEENLDAEIMGVVKQDAVESYEPHIVVELQSDTKEDMVSNVSRIVAWEKMWLEQHPDGVTNEYQGPRSDDEDDEDSE
notes: Fap7, conserved ATPase, S. cerevisiae (YDL166C); only the complex is printed as His6-Fap7:uS11; also called purified Fap7; Fap7 alone; source: E. coli BL21, purified
- binding [2]: no binding
- binding [3]: no binding
- binding (GST-Pse1 (S. cerevisiae)): no binding
- binding (GST-Pdr6 (S. cerevisiae)): no binding
- binding [4]: no binding
